Test results as given in paper PMC3534021, “Structure of the TPR Domain of AIP: Lack of Client Protein Interaction with the C-Terminal α-7 Helix of the TPR Domain of AIP Is Sufficient for Pituitary Adenoma Predisposition” (PLoS ONE, 2012).
No constants are given. Whether binding was seen depends on the method and setting. For some assays here: In cells and extracts the contact can be indirect. For some assays here: Sequences can lack the tags named with a protein.

T1: wild-type AIP, Flag-tagged (pCI-neo-AIP-Flag) and Myc-tagged (pcDNA 3.0-Myc-AIP) copies (human), O00170
T1 chain: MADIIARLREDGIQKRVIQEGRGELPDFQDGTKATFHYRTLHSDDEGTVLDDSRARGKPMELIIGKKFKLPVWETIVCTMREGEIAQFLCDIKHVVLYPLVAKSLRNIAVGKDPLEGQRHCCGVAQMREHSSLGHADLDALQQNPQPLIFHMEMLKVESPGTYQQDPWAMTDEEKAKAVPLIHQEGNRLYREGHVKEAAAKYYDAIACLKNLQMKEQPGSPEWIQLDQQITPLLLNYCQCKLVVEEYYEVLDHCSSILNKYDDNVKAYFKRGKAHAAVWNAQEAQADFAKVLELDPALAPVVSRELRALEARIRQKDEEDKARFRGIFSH


Columns and labels:
[1] = target: T1, wild-type AIP, Flag-tagged …; assay: co-IP; GH3 cells co-transfected with AIP-Flag and Myc-AIP; lysate (~150 µg protein) with 1 µg TOMM20 peptide; reciprocal immunoprecipitation with anti-Myc or anti-Flag, Protein G Sepharose; blots for Myc and Flag; details: remark: other sources report otherwise
[2] = target: TPR domain (residues 166–330) of human AIP (aryl hydrocarbon receptor interacting protein), wild type (human) (UniProt O00170); assay: crystal structure; AIP TPR-domain mixed with peptide at a 1:20 molar ratio; crystals from 1 M ammonium sulphate, 1% PEG 3350, 0.1 M Bis-Tris pH 5.5, 14°C; both purified

Row | binding [1] | binding [2] | Binder
1 | no binding | – | wild-type AIP, Flag-tagged (pCI-neo-AIP-Flag) and Myc-tagged (pcDNA 3.0-Myc-AIP) copies, O00170 1-330 (protein) MADIIARLREDGIQKRVIQEGRGELPDFQDGTKATFHYRTLHSDDEGTVLDDSRARGKPMELIIGKKFKLPVWETIVCTMREGEIAQFLCDIKHVVLYPLVAKSLRNIAVGKDPLEGQRHCCGVAQMREHSSLGHADLDALQQNPQPLIFHMEMLKVESPGTYQQDPWAMTDEEKAKAVPLIHQEGNRLYREGHVKEAAAKYYDAIACLKNLQMKEQPGSPEWIQLDQQITPLLLNYCQCKLVVEEYYEVLDHCSSILNKYDDNVKAYFKRGKAHAAVWNAQEAQADFAKVLELDPALAPVVSRELRALEARIRQKDEEDKARFRGIFSH
2 | – | no binding | TPR domain (residues 166–330) of human AIP (aryl hydrocarbon receptor interacting protein), wild type (domain or fragment, UniProt O00170 166-330, looked up, Residues Asp 172 to Arg 325 were visible in the TOMM20 peptide structure; also called AIP TPR-domain; WT) DPWAMTDEEKAKAVPLIHQEGNRLYREGHVKEAAAKYYDAIACLKNLQMKEQPGSPEWIQLDQQITPLLLNYCQCKLVVEEYYEVLDHCSSILNKYDDNVKAYFKRGKAHAAVWNAQEAQADFAKVLELDPALAPVVSRELRALEARIRQKDEEDKARFRGIFSH
